Here are results for two substances from patent US5252558A (Richter Gedeon Vegyeszeti Gyar RT, priority 1990, dated 1993).

HELM strings list residues between dots; [ac] is acetyl, [am] amide, other brackets name non-standard units.

A short description of the data set: general procedure: solution-phase peptide synthesis; active esters (Z-Glu(OtBu)-OSu, pAad-Opfp). To be noted: late stage modification step.

Consider “Glu Asp Ser Gly as the oxalate Sequence 4”, for which the step yield (oxalate) was determined as 90%.
PEPTIDE1{[pAad].E.D.S.G}$$$$V2.0: the step yield was determined as 48%.
